In PMC9354243, “The Role of Tryptophan in π Interactions in Proteins: An Experimental Approach” (Journal of the American Chemical Society, 2022):

Tested on: LmrR expressed in L. lactis Trp auxotroph strain PA1002
Test: Biosynthetic incorporation of Trp analogs into LmrR, MALDI-TOF after tryptic digestion
Set-up: species or system Lactococcus lactis
Conditions: MALDI-TOF peak areas; for Incorporation efficiency, Position 67: Trp analog at position 67 in LmrR; for Incorporation efficiency, Position 96: Trp analog at position 96 in LmrR

| SMILES | Incorporation efficiency, Position 67 [%] | Incorporation efficiency, Position 96 [%] |
| --- | --- | --- |
| N[C@@H](Cc1c[nH]c2c(F)c(F)c(F)c(F)c12)C(=O)O [4,5,6,7tetraFW, 4,5,6,7-tetrafluorotryptophan] | 76 | > 96 |
| N[C@@H](Cc1c[nH]c2cc(F)c(F)cc12)C(=O)O [5,6diFW, 5,6-difluorotryptophan] | > 99 | > 99 |
